This is one part of the list.
Assays:
Assay in all cases: log2 fold change, soluble protein after heating vs DMSO (PISA); higher = thermal stabilisation; K562 cells, 10 uM, 30 min; active = over 0.2 and 3.5 SD of the protein, either way, in both replicates (recomputed)
[1] = compound: C#Cc1cccc(Nc2ncnc3cc(OCCOC)c(OCCOC)cc23)c1 [erlotinib]
Outline: (§1)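 K562 cells (2×10^6 cells/mL) were treated with 10 μM compound for 30 min, and aliquots were heated for 3 min over 48°C-58°C. Pooled aliquots were extracted in PBS with 0.5% NP-40 at 4°C, and the supernatant after 21,000xg for 90 min was measured by TMTpro 16plex LC-MS/MS with channel sums equalised. Reported thermal stability, relative to control samples and from duplicates, is a log2 fold change.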

Amino acid sequences for entries named in this document (tags omitted). A change or cut given only in a name is not applied to a line headed by its entry.
UniProt Q9BV57: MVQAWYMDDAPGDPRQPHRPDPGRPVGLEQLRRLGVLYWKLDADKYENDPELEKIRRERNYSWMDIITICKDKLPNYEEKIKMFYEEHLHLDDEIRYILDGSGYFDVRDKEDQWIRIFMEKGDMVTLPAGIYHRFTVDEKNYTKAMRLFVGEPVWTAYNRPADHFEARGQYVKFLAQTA
UniProt Q8WYP5: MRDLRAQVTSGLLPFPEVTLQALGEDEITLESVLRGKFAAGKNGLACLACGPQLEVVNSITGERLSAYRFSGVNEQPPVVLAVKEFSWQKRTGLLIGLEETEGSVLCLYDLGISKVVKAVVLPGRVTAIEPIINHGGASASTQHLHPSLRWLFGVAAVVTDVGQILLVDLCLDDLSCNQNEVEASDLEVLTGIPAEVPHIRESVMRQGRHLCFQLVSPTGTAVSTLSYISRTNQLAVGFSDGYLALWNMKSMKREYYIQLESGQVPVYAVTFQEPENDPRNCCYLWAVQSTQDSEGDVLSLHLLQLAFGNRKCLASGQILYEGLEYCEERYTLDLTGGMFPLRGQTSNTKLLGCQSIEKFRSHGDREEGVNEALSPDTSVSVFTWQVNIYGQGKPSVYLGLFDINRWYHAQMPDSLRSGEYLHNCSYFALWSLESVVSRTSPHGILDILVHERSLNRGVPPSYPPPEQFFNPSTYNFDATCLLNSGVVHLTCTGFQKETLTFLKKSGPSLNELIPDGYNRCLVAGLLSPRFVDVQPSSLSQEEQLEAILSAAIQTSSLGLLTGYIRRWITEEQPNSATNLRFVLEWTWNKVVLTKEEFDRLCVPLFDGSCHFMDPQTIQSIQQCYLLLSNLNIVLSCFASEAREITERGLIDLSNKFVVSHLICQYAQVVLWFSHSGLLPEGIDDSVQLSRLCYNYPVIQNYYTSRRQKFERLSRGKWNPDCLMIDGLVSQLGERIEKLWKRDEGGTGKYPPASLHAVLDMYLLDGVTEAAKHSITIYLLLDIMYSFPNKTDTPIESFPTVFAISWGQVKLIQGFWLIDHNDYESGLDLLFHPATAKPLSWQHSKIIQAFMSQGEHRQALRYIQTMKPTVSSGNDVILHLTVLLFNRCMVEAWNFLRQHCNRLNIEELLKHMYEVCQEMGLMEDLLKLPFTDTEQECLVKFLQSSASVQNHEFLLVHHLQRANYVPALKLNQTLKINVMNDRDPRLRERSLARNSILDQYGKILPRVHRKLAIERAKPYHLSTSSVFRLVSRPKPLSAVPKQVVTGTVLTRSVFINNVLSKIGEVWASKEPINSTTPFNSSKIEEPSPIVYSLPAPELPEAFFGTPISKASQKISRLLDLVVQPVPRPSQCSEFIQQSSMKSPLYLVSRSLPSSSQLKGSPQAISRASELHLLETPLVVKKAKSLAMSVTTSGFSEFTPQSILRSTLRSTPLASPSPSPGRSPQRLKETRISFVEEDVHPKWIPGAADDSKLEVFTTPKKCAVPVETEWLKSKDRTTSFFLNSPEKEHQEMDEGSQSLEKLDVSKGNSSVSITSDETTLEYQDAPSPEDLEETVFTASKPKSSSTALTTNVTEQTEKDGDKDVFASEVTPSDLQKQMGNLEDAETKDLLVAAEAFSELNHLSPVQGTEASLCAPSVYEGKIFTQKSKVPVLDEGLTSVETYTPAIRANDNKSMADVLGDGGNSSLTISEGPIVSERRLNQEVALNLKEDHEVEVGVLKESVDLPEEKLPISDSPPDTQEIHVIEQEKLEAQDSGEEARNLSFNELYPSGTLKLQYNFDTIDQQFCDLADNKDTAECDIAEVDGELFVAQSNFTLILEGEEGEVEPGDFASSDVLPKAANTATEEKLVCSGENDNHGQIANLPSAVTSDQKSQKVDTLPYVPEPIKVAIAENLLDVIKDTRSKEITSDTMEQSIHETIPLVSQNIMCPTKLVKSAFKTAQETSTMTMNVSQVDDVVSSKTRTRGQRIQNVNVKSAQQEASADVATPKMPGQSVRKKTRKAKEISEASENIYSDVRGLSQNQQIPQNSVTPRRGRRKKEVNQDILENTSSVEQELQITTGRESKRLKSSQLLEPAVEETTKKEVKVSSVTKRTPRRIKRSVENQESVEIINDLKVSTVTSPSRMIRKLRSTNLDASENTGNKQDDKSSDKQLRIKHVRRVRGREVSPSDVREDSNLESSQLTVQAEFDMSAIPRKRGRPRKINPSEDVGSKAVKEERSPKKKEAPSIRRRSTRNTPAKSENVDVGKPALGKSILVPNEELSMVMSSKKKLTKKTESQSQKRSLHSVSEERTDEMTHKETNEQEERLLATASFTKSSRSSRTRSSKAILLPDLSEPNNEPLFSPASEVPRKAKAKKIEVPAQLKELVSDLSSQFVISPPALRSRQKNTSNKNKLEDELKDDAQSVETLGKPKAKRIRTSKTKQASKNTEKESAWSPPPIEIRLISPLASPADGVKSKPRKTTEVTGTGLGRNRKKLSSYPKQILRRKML
UniProt Q9Y3D8, whole entry, looked up: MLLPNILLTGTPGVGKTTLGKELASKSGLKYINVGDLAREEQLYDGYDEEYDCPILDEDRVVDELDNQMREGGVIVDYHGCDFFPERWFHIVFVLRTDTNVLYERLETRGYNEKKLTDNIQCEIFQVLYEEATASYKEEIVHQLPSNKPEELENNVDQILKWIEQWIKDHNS
UniProt Q9NRZ7: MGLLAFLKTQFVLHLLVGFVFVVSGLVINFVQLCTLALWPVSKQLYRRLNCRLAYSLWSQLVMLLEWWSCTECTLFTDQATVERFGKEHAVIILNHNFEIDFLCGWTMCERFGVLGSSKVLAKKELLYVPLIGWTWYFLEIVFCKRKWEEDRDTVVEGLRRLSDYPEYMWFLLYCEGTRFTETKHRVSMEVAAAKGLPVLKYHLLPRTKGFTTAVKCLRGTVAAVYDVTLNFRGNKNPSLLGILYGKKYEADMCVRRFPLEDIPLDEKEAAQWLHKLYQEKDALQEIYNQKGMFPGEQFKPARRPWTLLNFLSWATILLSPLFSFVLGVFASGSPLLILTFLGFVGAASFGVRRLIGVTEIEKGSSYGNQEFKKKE
UniProt Q9NUQ2: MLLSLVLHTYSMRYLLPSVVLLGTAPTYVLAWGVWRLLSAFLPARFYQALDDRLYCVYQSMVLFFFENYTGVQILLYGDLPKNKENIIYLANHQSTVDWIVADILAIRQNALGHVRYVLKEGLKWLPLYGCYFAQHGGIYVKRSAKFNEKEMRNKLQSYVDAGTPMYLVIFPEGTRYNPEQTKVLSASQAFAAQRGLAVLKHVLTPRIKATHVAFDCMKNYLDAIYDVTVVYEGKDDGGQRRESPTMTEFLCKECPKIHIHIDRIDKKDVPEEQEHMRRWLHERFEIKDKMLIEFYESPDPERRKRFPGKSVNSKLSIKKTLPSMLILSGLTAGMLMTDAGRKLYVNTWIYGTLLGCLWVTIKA
UniProt P42330: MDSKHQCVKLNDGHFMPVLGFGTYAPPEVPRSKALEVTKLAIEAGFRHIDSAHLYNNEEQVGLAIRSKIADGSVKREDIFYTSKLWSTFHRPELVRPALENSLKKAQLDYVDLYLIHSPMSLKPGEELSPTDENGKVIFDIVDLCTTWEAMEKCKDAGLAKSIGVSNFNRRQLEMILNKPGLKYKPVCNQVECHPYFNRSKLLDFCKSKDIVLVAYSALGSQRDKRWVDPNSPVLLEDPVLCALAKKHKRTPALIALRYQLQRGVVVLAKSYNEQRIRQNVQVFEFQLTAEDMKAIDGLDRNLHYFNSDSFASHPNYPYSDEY
UniProt Q9H1A4, whole entry, looked up: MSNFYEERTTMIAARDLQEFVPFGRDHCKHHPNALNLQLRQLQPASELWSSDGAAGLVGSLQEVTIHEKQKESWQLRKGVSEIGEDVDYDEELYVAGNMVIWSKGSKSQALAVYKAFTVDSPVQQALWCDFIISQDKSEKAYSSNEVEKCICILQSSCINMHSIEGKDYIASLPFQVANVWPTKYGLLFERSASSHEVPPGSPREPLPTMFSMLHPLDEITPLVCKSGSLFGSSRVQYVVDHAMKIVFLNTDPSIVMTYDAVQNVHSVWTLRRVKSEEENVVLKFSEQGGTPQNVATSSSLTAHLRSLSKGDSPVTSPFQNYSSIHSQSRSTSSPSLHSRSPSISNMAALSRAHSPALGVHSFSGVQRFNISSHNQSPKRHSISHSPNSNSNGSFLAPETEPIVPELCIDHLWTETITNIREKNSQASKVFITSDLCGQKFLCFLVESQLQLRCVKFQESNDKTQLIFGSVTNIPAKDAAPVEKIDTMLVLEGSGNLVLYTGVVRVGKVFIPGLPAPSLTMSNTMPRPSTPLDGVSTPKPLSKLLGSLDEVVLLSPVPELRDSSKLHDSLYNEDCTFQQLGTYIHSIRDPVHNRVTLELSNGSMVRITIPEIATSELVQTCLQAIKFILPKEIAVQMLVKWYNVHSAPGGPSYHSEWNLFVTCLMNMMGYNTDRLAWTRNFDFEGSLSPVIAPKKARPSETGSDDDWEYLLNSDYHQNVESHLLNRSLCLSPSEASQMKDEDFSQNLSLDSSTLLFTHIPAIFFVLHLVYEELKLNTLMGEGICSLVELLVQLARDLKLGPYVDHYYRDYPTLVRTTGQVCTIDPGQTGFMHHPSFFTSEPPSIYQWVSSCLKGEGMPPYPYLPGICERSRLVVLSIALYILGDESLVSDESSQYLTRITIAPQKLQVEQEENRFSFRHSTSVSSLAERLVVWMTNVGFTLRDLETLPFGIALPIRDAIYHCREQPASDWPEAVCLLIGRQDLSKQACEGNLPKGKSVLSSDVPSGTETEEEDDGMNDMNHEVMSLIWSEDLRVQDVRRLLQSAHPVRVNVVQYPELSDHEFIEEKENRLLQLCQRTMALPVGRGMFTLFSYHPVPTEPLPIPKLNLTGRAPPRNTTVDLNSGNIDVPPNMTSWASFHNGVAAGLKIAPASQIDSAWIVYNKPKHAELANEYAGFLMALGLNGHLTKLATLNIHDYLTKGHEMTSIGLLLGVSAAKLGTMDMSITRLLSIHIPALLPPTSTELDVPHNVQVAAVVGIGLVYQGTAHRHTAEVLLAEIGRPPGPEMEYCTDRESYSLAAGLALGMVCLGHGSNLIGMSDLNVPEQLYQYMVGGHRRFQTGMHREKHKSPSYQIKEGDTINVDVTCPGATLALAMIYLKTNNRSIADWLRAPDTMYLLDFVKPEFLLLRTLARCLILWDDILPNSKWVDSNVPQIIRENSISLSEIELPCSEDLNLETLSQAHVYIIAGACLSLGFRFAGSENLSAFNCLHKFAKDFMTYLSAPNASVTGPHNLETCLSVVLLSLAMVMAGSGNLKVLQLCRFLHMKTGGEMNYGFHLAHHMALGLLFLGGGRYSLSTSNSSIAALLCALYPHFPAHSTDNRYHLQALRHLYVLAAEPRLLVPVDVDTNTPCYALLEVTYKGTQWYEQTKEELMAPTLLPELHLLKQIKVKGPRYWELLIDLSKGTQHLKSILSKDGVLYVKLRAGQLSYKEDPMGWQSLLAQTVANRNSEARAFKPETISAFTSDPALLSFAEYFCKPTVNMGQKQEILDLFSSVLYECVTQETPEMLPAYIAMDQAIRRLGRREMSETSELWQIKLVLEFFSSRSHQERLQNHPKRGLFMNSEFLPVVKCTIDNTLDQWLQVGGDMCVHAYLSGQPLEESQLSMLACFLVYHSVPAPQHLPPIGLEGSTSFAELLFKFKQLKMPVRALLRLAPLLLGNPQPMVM
UniProt Q96BJ3: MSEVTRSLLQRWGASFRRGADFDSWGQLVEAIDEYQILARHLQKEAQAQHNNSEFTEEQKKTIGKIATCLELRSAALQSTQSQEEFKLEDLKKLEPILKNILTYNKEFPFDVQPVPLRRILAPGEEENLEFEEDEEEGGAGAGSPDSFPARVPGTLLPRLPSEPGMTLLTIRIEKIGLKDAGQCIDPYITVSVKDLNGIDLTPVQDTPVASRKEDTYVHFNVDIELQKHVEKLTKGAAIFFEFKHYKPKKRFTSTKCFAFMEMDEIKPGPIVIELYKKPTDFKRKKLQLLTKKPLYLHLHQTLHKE
UniProt O00116: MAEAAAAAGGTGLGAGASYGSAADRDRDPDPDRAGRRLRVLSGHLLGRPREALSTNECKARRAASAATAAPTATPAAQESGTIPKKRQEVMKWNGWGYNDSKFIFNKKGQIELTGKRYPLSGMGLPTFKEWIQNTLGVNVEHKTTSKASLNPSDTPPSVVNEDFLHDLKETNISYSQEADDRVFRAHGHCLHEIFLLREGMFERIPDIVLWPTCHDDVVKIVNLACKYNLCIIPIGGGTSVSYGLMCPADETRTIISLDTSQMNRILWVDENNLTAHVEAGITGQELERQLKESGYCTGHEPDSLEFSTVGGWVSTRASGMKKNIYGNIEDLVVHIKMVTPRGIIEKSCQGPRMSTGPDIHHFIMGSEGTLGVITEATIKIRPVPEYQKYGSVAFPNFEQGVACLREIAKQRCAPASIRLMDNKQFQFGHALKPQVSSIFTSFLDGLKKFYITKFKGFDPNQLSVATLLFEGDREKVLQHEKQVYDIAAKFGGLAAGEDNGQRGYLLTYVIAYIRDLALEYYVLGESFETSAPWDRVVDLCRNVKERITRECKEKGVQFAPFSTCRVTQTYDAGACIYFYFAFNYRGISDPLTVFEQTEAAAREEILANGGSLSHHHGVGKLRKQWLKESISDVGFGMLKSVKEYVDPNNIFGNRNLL

[2] = compound: C/C(=N\NC(=O)C1=CC(=CC=C1)S(=O)(=O)N2CCOCC2)/C3=C(C=CC(=C3)Cl)O
Outline: as §1

[3] = compound: C1=CC(=C(C=C1Cl)C2=NC3=NC=CN=C3C(=N2)NC4=CC=NC=C4)F
Outline: as §1

[4] = compound: C1=CC(=CC=C1C2=NC3=C(N2)C=C(C=C3)C(=O)N)OC4=CC=C(C=C4)Cl
Outline: as §1

[5] = compound: C1=CC2=C(C=CC(=C2)/C=C\3/C(=O)NC(=NCC4=CC=CS4)S3)N=C1
Outline: as §1

[6] = compound: C1=CC2=NC=CN=C2C=C1/C=C/3\C(=O)NC(=O)S3
Outline: as §1

[7] = compound: C1=CC=C(C=C1)C2=NC(=C(N2)C3=CC=NC=C3)C4=CC(=C(C=C4)Cl)O
Outline: as §1

[8] = compound: C1=CC=C2C(=C1)C3=NNC4=CC=CC(=C43)C2=O
Outline: as §1

[9] = compound: C1CCN(C1)C(=O)NC2=CC=CC(=C2)NC3=NC=C(C(=N3)NCCC4=CN=CN4)Br
Outline: as §1

[10] = compound: C1CN(CCC1(CC2=CC=C(C=C2)Cl)N)C3=NC=NC4=C3C=CN4
Outline: as §1

| Target | log2 fold change [1] | log2 fold change [2] | log2 fold change [3] | log2 fold change [4] | log2 fold change [5] | log2 fold change [6] | log2 fold change [7] | log2 fold change [8] | log2 fold change [9] | log2 fold change [10] |
| --- | --- | --- | --- | --- | --- | --- | --- | --- | --- | --- |
| ADI1 (UniProt Q9BV57) | inactive: 0.026 | inactive: -0.183 | inactive: 0.019 | inactive: 0.08 | inactive: 0.057 | inactive: 0.048 | inactive: -0.031 | inactive: 0.004 | inactive: -0.057 | inactive: -0.03 |
| AGO3 (UniProt Q9H9G7) | inactive: -0.061 | inactive: -0.002 | inactive: -0.072 | inactive: -0.053 | inactive: 0.078 | inactive: 0.002 | inactive: -0.102 | inactive: -0.161 | inactive: -0.094 | inactive: 0.031 |
| AHCTF1 isoform 2 (UniProt Q8WYP5) | inactive: -0.003 | inactive: -0.023 | inactive: -0.111 | inactive: 0.071 | inactive: 0.005 | inactive: -0.067 | inactive: -0.029 | inactive: -0.02 | inactive: -0.053 | inactive: 0.056 |
| ALDH4A1 (UniProt P30038) | inactive: 0.048 | inactive: 0.047 | inactive: 0.072 | inactive: -0.046 | inactive: 0.018 | inactive: 0.023 | inactive: 0.025 | inactive: 0.045 | inactive: -0.006 | inactive: 0.035 |
| AIFM1 (UniProt O95831) | inactive: -0.004 | inactive: -0.001 | inactive: 0.023 | inactive: -0.003 | inactive: 0.003 | inactive: 0.029 | inactive: -0.029 | inactive: -0.01 | inactive: 0.01 | inactive: 0.014 |
| AK6 (UniProt Q9Y3D8) | inactive: 0.105 | inactive: 0.108 | inactive: 0.007 | inactive: -0.157 | inactive: 0.194 | inactive: 0.025 | inactive: 0.046 | inactive: -0.027 | inactive: -0.041 | inactive: -0.085 |
| AKT2 (UniProt P31751) | inactive: 0.014 | inactive: 0.096 | inactive: 0.094 | inactive: 0.027 | inactive: 0.068 | inactive: -0.023 | inactive: 0.019 | inactive: 0.028 | inactive: -0.068 | inactive: 0.144 |
| AIP (UniProt O00170) | inactive: 0.035 | inactive: 0.096 | inactive: 0.133 | inactive: -0.006 | inactive: 0.042 | inactive: 0.048 | inactive: -0.01 | inactive: 0.011 | inactive: 0.005 | inactive: -0.026 |
| AGFG1 isoform 4 (UniProt P52594) | inactive: -0.02 | inactive: 0.071 | inactive: 0.101 | inactive: 0.009 | inactive: 0.02 | inactive: 0.013 | inactive: -0.028 | inactive: -0.01 | inactive: -0.064 | inactive: 0.062 |
| AGPAT3 isoform 3 (UniProt Q9NRZ7) | inactive: 0.009 | inactive: -0.008 | inactive: 0.028 | inactive: -0.009 | inactive: 0.028 | inactive: 0.12 | inactive: 0.04 | inactive: 0.006 | inactive: 0 | inactive: 0.067 |
| AKT1S1 isoform 3 (UniProt Q96B36) | inactive: 0.018 | inactive: -0.027 | inactive: 0.008 | inactive: 0.049 | inactive: 0.097 | inactive: 0.021 | inactive: -0.089 | inactive: -0.025 | inactive: 0.05 | inactive: 0.102 |
| AK3 (UniProt Q9UIJ7) | inactive: -0.01 | inactive: 0.007 | inactive: 0.028 | inactive: -0.017 | inactive: 0.019 | inactive: 0 | inactive: -0.013 | inactive: -0.007 | inactive: 0.013 | inactive: 0.01 |
| ALDH1A2 (UniProt O94788) | inactive: 0.013 | inactive: 0.032 | inactive: 0.091 | inactive: -0.003 | inactive: 0.032 | inactive: -0.016 | inactive: 0.051 | inactive: 0.017 | inactive: -0.03 | inactive: 0.019 |
| ALG14 (UniProt Q96F25) | inactive: 0.111 | inactive: 0.018 | inactive: -0.128 | inactive: -0.085 | inactive: 0.084 | inactive: 0.088 | inactive: 0.053 | inactive: 0.002 | inactive: -0.061 | inactive: 0.014 |
| ALDH5A1 isoform 2 (UniProt P51649) | inactive: 0.007 | inactive: 0.042 | inactive: 0.057 | inactive: 0.01 | inactive: -0.009 | inactive: 0.016 | inactive: -0.004 | inactive: -0.012 | inactive: -0.01 | inactive: 0.046 |
| ADRM1 (UniProt Q16186) | inactive: -0.069 | inactive: -0.038 | inactive: -0.007 | inactive: 0.006 | inactive: 0.034 | inactive: 0.033 | inactive: 0.028 | inactive: 0.046 | inactive: -0.017 | inactive: -0.076 |
| AGPAT5 (UniProt Q9NUQ2) | inactive: 0.042 | inactive: -0.019 | inactive: -0.003 | inactive: 0.014 | inactive: 0.009 | inactive: 0.048 | inactive: 0.07 | inactive: -0.001 | inactive: -0.017 | inactive: 0.079 |
| ANAPC10 (UniProt Q9UM13) | inactive: -0.005 | inactive: 0.017 | inactive: -0.004 | inactive: -0.007 | inactive: 0.019 | inactive: 0.023 | inactive: 0.009 | inactive: 0.023 | inactive: -0.11 | inactive: -0.051 |
| AKR1C3 (UniProt P42330) | inactive: 0.063 | inactive: 0.067 | inactive: 0.117 | inactive: -0.095 | inactive: 0.02 | inactive: 0.067 | active: 0.796 | inactive: -0.022 | inactive: 0.031 | inactive: 0.044 |
| AMPD2 (UniProt Q01433) | inactive: -0.001 | inactive: -0.002 | inactive: 0.039 | inactive: 0.009 | inactive: 0.013 | inactive: 0.001 | inactive: 0.019 | inactive: 0.019 | inactive: 0.017 | inactive: 0.061 |
| ALDH9A1 (UniProt P49189) | inactive: 0.131 | inactive: 0.021 | inactive: 0.035 | inactive: -0.077 | inactive: -0.023 | inactive: 0.013 | inactive: -0.103 | inactive: 0.043 | inactive: 0.035 | inactive: 0.045 |
| ADD2 (UniProt P35612) | inactive: 0.008 | inactive: -0.011 | inactive: 0.025 | inactive: 0.004 | inactive: -0.004 | inactive: 0.022 | inactive: 0.012 | inactive: -0.005 | inactive: 0.004 | inactive: 0.016 |
| AKAP8 (UniProt O43823) | inactive: -0.056 | inactive: 0.032 | inactive: 0.074 | inactive: 0.039 | inactive: -0.028 | inactive: -0.004 | inactive: -0.039 | inactive: -0.068 | inactive: 0.015 | inactive: 0.018 |
| AMPD3 isoform 4 (UniProt Q01432) | inactive: 0.062 | inactive: 0.03 | inactive: 0.056 | inactive: -0.005 | inactive: -0.037 | inactive: 0.035 | inactive: 0.008 | inactive: -0.028 | inactive: 0.027 | inactive: 0.034 |
| ADGRE2 (UniProt Q9UHX3) | inactive: -0.027 | inactive: 0.014 | inactive: 0.017 | inactive: 0.068 | inactive: -0.115 | inactive: 0.039 | inactive: 0.203 | inactive: -0.034 | inactive: 0.003 | inactive: 0.068 |
| ANAPC1 (UniProt Q9H1A4) | inactive: -0.058 | inactive: -0.025 | inactive: -0.023 | inactive: 0.008 | inactive: 0.011 | inactive: 0.025 | inactive: 0.007 | inactive: -0.01 | inactive: 0.008 | inactive: -0.018 |
| AIDA (UniProt Q96BJ3) | inactive: 0.03 | inactive: 0.062 | inactive: 0.102 | inactive: -0.031 | inactive: -0.009 | inactive: -0.001 | inactive: 0.013 | inactive: -0.02 | inactive: -0.056 | inactive: 0.069 |
| AHCYL2 (UniProt Q96HN2) | inactive: 0.035 | inactive: -0.02 | inactive: 0.078 | inactive: -0.018 | inactive: 0.013 | inactive: 0.032 | inactive: -0.013 | inactive: 0.048 | inactive: 0.019 | inactive: 0.038 |
| ALG1 (UniProt Q9BT22) | inactive: 0.082 | inactive: 0.05 | inactive: 0.095 | inactive: -0.003 | inactive: 0.049 | inactive: -0.002 | inactive: -0.014 | inactive: 0.022 | inactive: -0.005 | inactive: 0.019 |
| AGPS (UniProt O00116) | inactive: 0.046 | inactive: 0.055 | inactive: 0.092 | active: 0.256 | inactive: 0.055 | inactive: 0.031 | inactive: 0.175 | inactive: 0.043 | inactive: -0.01 | inactive: 0.077 |

Looked up one by one from the entries so far:

| Target | log2 fold change [1] | log2 fold change [2] | log2 fold change [3] | log2 fold change [4] | log2 fold change [5] | log2 fold change [6] | log2 fold change [7] | log2 fold change [8] | log2 fold change [9] | log2 fold change [10] |
| --- | --- | --- | --- | --- | --- | --- | --- | --- | --- | --- |
| AIDA (UniProt Q96BJ3) | inactive: 0.03 | inactive: 0.062 | inactive: 0.102 | inactive: -0.031 | inactive: -0.009 | inactive: -0.001 | inactive: 0.013 | inactive: -0.02 | inactive: -0.056 | inactive: 0.069 |
| ALG1 (UniProt Q9BT22) | inactive: 0.082 | inactive: 0.05 | inactive: 0.095 | inactive: -0.003 | inactive: 0.049 | inactive: -0.002 | inactive: -0.014 | inactive: 0.022 | inactive: -0.005 | inactive: 0.019 |

— the supplement of paper PMC10849652
